Experimental findings from publication PMC7819943, “Rice protein-binding microarrays: a tool to detect cis-acting elements near promoter regions in rice” are described below.

The chains behind the UniProt entries cited, without tags or fusion partners.
UniProt Q0JBA9, entry or part of it: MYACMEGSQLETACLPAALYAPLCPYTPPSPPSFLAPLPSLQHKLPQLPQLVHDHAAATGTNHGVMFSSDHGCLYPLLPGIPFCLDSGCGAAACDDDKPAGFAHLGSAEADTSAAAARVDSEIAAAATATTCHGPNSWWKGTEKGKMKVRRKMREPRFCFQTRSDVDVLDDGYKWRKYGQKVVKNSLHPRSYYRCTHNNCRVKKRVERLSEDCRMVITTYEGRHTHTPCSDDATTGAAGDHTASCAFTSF

Some of the results follow.

For the assay, the target named is OsWRKY34 (Oryza sativa, UniProt Q0JBA9 1-250). Kind of assay: protein-binding microarray (RPBM); PBS, 2% BSA, 51.3 ng/ul salmon testes DNA, 50 uM zinc acetate, 200 nM TF, 25 C, 1 h; high values mean tight binding. Particulars: protein: recombinant; tags: N-terminal polyhistidine and DsRed monomer fusion (pET32a); label: CyDye5-dUTP incorporated in the synthesized complementary strand; 3' TTTTT single-stranded linker to array surface; dsDNA, one strand shown. The gist of the method: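 The binding signal is fluorescence intensity per array feature (arbitrary units). Readings came from an Axon 4000B scanner after a washed, 2% BSA-blocked, double-stranded custom Agilent array had been incubated for 1 h at 25 °C with 200 nM protein and 50 µM zinc acetate. The protein was a Ni–NTA-purified transcription factor fused N-terminally to polyhistidine and DsRed, expressed in E. coli BL21-CodonPlus.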
With “ACTGGTTGACTGACTTGTAATAACGTCTGCCATCTCTCTCCGGAGTCACCTAGTGCAG”, the binding signal was 10400 fluorescence intensity (a.u.).
“CGCTCCAGCCAAACGCATCATCTCAGCCGTCGCCCCTCACCGGAGTCACCTAGTGCAG”: the binding signal was 10000 fluorescence intensity (a.u.).
With “TCCGTATTTGATTCCAAGTTTTCGACTACTAGTTTTCTCACGGAGTCACCTAGTGCAG” the figure was 9010 fluorescence intensity (a.u.).
“TTCTCCACCTCTCTTGCTCTCTCGCCCTCTTCACCAAGAACGGAGTCACCTAGTGCAG”: the binding signal was 8660 fluorescence intensity (a.u.).
In the case of “GATCTCCGACCGCCGTCTAATGCCGCCGCCGCCACCTCCGCGGAGTCACCTAGTGCAG”, the binding signal was 11600 fluorescence intensity (a.u.).
In the case of “TGTTGTTGGTTCCCTCTCCACGGCGACCTCATTGCCTCTCCGGAGTCACCTAGTGCAG”, the binding signal is 8200 fluorescence intensity (a.u.).
As for “AGAGTACCAGCAACCGCACATCACCGGCACCGCACATCACCGGAGTCACCTAGTGCAG”, the binding signal is 8140 fluorescence intensity (a.u.).
For “GTAGGCCTTGTACCGTACGTTGCTGTTCCATTTTCCATACCGGAGTCACCTAGTGCAG”, the binding signal was 9220 fluorescence intensity (a.u.).
As to “CAACCCAACGCCGGTCCGTCGCCCACCGCCCTCCGCGCGCCGGAGTCACCTAGTGCAG”, the binding signal is 9150 fluorescence intensity (a.u.).
With “CGCGCTGTTTTTATTGACCATTTTTTGTGGGTTTTAGCGACGGAGTCACCTAGTGCAG” the figure was 8650 fluorescence intensity (a.u.); with “ACCCGATCCATTGCACATTTGCACTCAACTGTTTCGCCCTCGGAGTCACCTAGTGCAG”, 9530 fluorescence intensity (a.u.); with “CGTCACCCACACGCACGCACGCACGTACGGCGCGGACATGCGGAGTCACCTAGTGCAG”, 12300 fluorescence intensity (a.u.).
Consider “CCCCACACTGCCCCACACATCCATCGCCGGATTCGCCTCCCGGAGTCACCTAGTGCAG”, for which the binding signal is 8160 fluorescence intensity (a.u.).
“CCGTCCGCTGTTTCGTGATATTTTCCAATTTTCCACCTGTCGGAGTCACCTAGTGCAG”: the binding signal is 10000 fluorescence intensity (a.u.).
Consider “GGTAGAGGCGGCAAATTCATAAGAAGGTTTTTTGTTTTGACGGAGTCACCTAGTGCAG”, for which the binding signal was 8100 fluorescence intensity (a.u.).
“TTTGCACTATTCACGTTCAACGTTTGACCGTTCGTCTTATCGGAGTCACCTAGTGCAG”: the binding signal was 9300 fluorescence intensity (a.u.).
Consider “CCCTCCGTATTTTAATGTATGACGCCGTTGACTTTTTGACCGGAGTCACCTAGTGCAG”, for which the binding signal was 26800 fluorescence intensity (a.u.).
On to “CCAACTCGCAGTCGTTTGCCAACACCGGCGTGCTTGTCACCGGAGTCACCTAGTGCAG”, for which the binding signal was 8040 fluorescence intensity (a.u.).
Take “AAATATACAACTCTTGGACGCCCTTACATCTCTCCATTGTCGGAGTCACCTAGTGCAG”: the binding signal is 8230 fluorescence intensity (a.u.).
Consider “CTCCGTCGCGTTTTTCATCCACTGTCCATTAATTTCCTAACGGAGTCACCTAGTGCAG”, for which the binding signal was 12100 fluorescence intensity (a.u.).
With “GCTCCGACAGTGGATCCTTGTCCATGGTGTTGGCGAGGGGCGGAGTCACCTAGTGCAG”, the binding signal was 8320 fluorescence intensity (a.u.).
For “ATAATTGCCATGCATGCACGTTGTCGTTCGTCGACCTTCCCGGAGTCACCTAGTGCAG”, the binding signal was 8690 fluorescence intensity (a.u.).
Consider “TGAGTATAGGGTTTTTTTTGTAACATATGCAGCCAGGTGCCGGAGTCACCTAGTGCAG”, for which the binding signal was 8890 fluorescence intensity (a.u.).
Turning to “ACGGAACCACACACGTGGATTTTTCATTTTTCCTTTTTTCCGGAGTCACCTAGTGCAG”, the binding signal was 8820 fluorescence intensity (a.u.).
The value for “GCGGAGGGGCGCATGGTGCTGGTGGCACACCCGACGGGGCCGGAGTCACCTAGTGCAG” was 8450 fluorescence intensity (a.u.); that for “CCTCATTTGCATTTTTCAGTTCTGGAATGCCCCTTGATTTCGGAGTCACCTAGTGCAG” was 10800 fluorescence intensity (a.u.).
Regarding “ATTAGTTTTTTTGTTTTGTGTGCGTTGAAAATATCTCTCCCGGAGTCACCTAGTGCAG”, the binding signal was 8680 fluorescence intensity (a.u.).
As for “GTCTGCGTTCGATTTCGCACATGCCCGCACCGCACTATCCCGGAGTCACCTAGTGCAG”, the binding signal is 9910 fluorescence intensity (a.u.).
The value for “ATCGATCGGAGCCGTCGGATCAACTTCATCTGTTGGTTTTCGGAGTCACCTAGTGCAG” was 8550 fluorescence intensity (a.u.); that for “TCTTTCGCTCTATGCTATATTTATCAATCTACATCGTTATCGGAGTCACCTAGTGCAG” was 11700 fluorescence intensity (a.u.); that for “GAACACCTCGCGAGCTTCCTCTCCTCCTCTGCATCGCGATCGGAGTCACCTAGTGCAG” was 8290 fluorescence intensity (a.u.).
The value for “GAAAGGAGCTGTGTATGGGATGTTTTCGTTGGTCACGAATCGGAGTCACCTAGTGCAG” was 8170 fluorescence intensity (a.u.).
As to “TTCATACCATCTTATTTTGTTCCCTGCTTATTTCATTTTCCGGAGTCACCTAGTGCAG”, the binding signal was 14500 fluorescence intensity (a.u.).
Regarding “AGAACAATTTTCTCGTGCATTTTCATTAGCGTTTCCCAGACGGAGTCACCTAGTGCAG”, the binding signal is 8320 fluorescence intensity (a.u.).
The value for “CTTGCACGTACTACTGTTTGTCGTCTCATTTCTGTATTTGCGGAGTCACCTAGTGCAG” was 8440 fluorescence intensity (a.u.).
The value for “AACAAGCTCTTTGAAACCATGGAAGCTAGCCTTTGTTTGCCGGAGTCACCTAGTGCAG” was 8500 fluorescence intensity (a.u.).
With “CATGGCGTCTCCCCTGACCACCACGCCTCCACCACCTCCGCGGAGTCACCTAGTGCAG” the figure was 8710 fluorescence intensity (a.u.).
For “TTGACGATTTCTTTTTTTCTTTTTTTGAGGTTCTTCTTATCGGAGTCACCTAGTGCAG”, the binding signal is 9680 fluorescence intensity (a.u.).
The value for “AATCACAGCACCATCGATTTGATGCCAACTCACATGTTACCGGAGTCACCTAGTGCAG” was 8980 fluorescence intensity (a.u.); that for “CCGTCGCCGGCCGCAACCACCACCACCACTCGCCGTCGCCCGGAGTCACCTAGTGCAG” was 13500 fluorescence intensity (a.u.).
Turning to “AGATGTGCAATGTTTTTTCTTTGATGTTCCACACAACAGGCGGAGTCACCTAGTGCAG”, the binding signal was 9290 fluorescence intensity (a.u.).
With “TGTCTGTCTCACATATTTTCTTGGTTCCTATGCTTAAACTCGGAGTCACCTAGTGCAG”, the binding signal is 11100 fluorescence intensity (a.u.).
